Experimental data: PubChem BioAssay AID743454 (Peter MacCallum Cancer Centre, 2014)

- Test: 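Knock-downs lowering viability or raising caspase 3/7 activity in vorinostat-treated resistant cells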 (primary screen)
- System: human HCT116-VR colon cancer cells, selected for vorinostat resistance
- Reagent: siRNA pool against human genes, 40 nM siRNA pool
- Time to read-out: vorinostat for 24 h, read-out about 72 h after transfection
- Conditions: vorinostat at 2.5 µM final
- Measurement: 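Two measures, CellTiter-Fluor viability and luminescent caspase 3/7 activity, each as fold change against same-plate mock wells, mean of duplicates, then screen-wide robust z-score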
- Reading the numbers: viability robust z-score: higher = more viable cells than screen typical; caspase robust z-score: higher = more caspase 3/7 activity than screen typical
- Call rule: 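Hits are knock-downs in viability class RV1/RV2 or caspase class CA1/CA2, excluding ones that killed cells in the no-drug cell-count arm; hits then retested with single siRNAs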
Here is a random part of about 18,000 deposited reagents. Over the whole deposit, 450 (2.5%) are marked active. 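Single biological run; no consistent viability z cut-off exists, so the class columns, not z-scores, define the calls.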 Reagent sequences are not shown.

With JAGN1 (jagunal vesicle mediated transporter 1) [SID134322828], what was measured?
viability hit class: no change; caspase hit class: no change; viability robust z-score: -0.36; caspase robust z-score: 0.33; call: inactive

With SPIB (Spi-B transcription factor) [SID135623818], how do the results read?
viability hit class: no change; caspase hit class: no change; viability robust z-score: -1.61; caspase robust z-score: 0.69; call: inactive

For PDGFRB (platelet derived growth factor receptor beta) [SID152152554], what was measured?
viability hit class: no change; caspase hit class: no change; viability robust z-score: -0.46; caspase robust z-score: -0.08; call: inactive

For ABCC3 (ATP binding cassette subfamily C member 3) [SID134312360], what does the deposit list?
viability hit class: no change; caspase hit class: no change; viability robust z-score: -0.34; caspase robust z-score: 2.51; call: inactive

With H1-6 (H1.6 linker histone, cluster member) [SID152153333], how do the results read?
viability hit class: no change; caspase hit class: no change; viability robust z-score: 0.78; caspase robust z-score: -0.33; call: inactive

For CCDC124 (coiled-coil domain containing 124) [SID134319641], what was measured?
viability hit class: no change; caspase hit class: no change; viability robust z-score: 0.08; caspase robust z-score: 0.72; call: inactive

For ZSCAN22 (zinc finger and SCAN domain containing 22) [SID134312296], what was measured?
viability hit class: no change; caspase hit class: no change; viability robust z-score: -0.14; caspase robust z-score: 0.37; call: inactive

For CWH43 (cell wall biogenesis 43 C-terminal homolog) [SID152152259], how do the results read?
viability hit class: no change; caspase hit class: no change; viability robust z-score: -0.67; caspase robust z-score: -1.25; call: inactive

With ZNF410 (zinc finger protein 410) [SID134318192], how do the results read?
viability hit class: no change; caspase hit class: no change; viability robust z-score: 0.19; caspase robust z-score: -0.6; call: inactive

For CXCL14 (C-X-C motif chemokine ligand 14) [SID152147274], what was measured?
viability hit class: no change; caspase hit class: no change; viability robust z-score: 1.22; caspase robust z-score: -0.04; call: inactive

How did the screen score PDCD7 (programmed cell death 7) [SID134316393]?
viability hit class: no change; caspase hit class: no change; viability robust z-score: -1.52; caspase robust z-score: -1.56; call: inactive

With DDX1 (DEAD-box helicase 1) [SID134316299], how do the results read?
viability hit class: no change; caspase hit class: no change; viability robust z-score: 0.02; caspase robust z-score: 0.56; call: inactive

Limited to “viability robust z-score”, for 3 of the entries above:
PDGFRB (platelet derived growth factor receptor beta) [SID152152554]	-0.46
ABCC3 (ATP binding cassette subfamily C member 3) [SID134312360]	-0.34
H1-6 (H1.6 linker histone, cluster member) [SID152153333]	0.78

The listing continues:
How did the screen score FBXL14 (F-box and leucine rich repeat protein 14) [SID134319746]?
viability hit class: no change; caspase hit class: no change; viability robust z-score: 0.46; caspase robust z-score: 0.18; call: inactive

Which result is listed for ZNF767P (zinc finger family member 767, pseudogene) [SID134318655]?
viability hit class: no change; caspase hit class: no change; viability robust z-score: -1.84; caspase robust z-score: 0.96; call: inactive

What did the screen give for FAM216A (family with sequence similarity 216 member A) [SID152155604]?
viability hit class: no change; caspase hit class: no change; viability robust z-score: 1.62; caspase robust z-score: 0.01; call: inactive

What did the screen give for CRNN (cornulin) [SID152149195]?
viability hit class: no change; caspase hit class: no change; viability robust z-score: -2.97; caspase robust z-score: 3.04; call: inactive

For WDR73 (WD repeat domain 73) [SID152148695], how do the results read?
viability hit class: no change; caspase hit class: no change; viability robust z-score: 0.39; caspase robust z-score: -0.42; call: inactive

With IAH1 (isoamyl acetate hydrolyzing esterase 1 (putative)) [SID152148806], how do the results read?
viability hit class: no change; caspase hit class: no change; viability robust z-score: -0.64; caspase robust z-score: -0.86; call: inactive

Which result is listed for TIMM29 (translocase of inner mitochondrial membrane 29) [SID134319558]?
viability hit class: no change; caspase hit class: no change; viability robust z-score: -0.38; caspase robust z-score: 1.51; call: inactive

What is on record for SRSF2 (serine and arginine rich splicing factor 2) [SID134323481]?
viability hit class: no change; caspase hit class: no change; viability robust z-score: -0.64; caspase robust z-score: -0.13; call: inactive

For PREP (prolyl endopeptidase) [SID134311429], how do the results read?
viability hit class: no change; caspase hit class: no change; viability robust z-score: -0.77; caspase robust z-score: -1.19; call: inactive
